# Measured values taken from the supplement of paper PMC8728848.
# The list shows a part of the results.
# Tests used:
# Assay in all cases: glycan array binding signal (z-score within array); higher = stronger binding
# Settings in all cases: glycan notation: IUPAC condensed, linker removed
# Neu5Ac(a2-3)Gal(b1-4)Glc = target: Neu5Ac(a2-3)Gal(b1-4)Glc
# Procedure, shortened: (§1)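 Negative Z-scores can be read as non-binding. The Z-score is calculated within each array and then averaged across arrays of one protein sequence at different concentrations or buffers and across linkers. Arrays, 3228 in all, were curated from the Consortium for Functional Glycomics database and kept only where the protein sequence was available.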
# [1] = target: Neu5Ac(a2-3)Gal(b1-4)GlcNAc
# Procedure, shortened: as §1
# [2] = target: Neu5Ac(a2-3)Gal(b1-4)GlcNAc(b1-2)Man
# Procedure, shortened: as §1
# [3] = target: Neu5Ac(a2-3)Gal(b1-4)GlcNAc(b1-2)Man(a1-3)[GlcNAc(b1-4)][Neu5Ac(a2-3)Gal(b1-4)GlcNAc(b1-2)Man(a1-6)]Man(b1-4)GlcNAc(b1-4)GlcNAc
# Procedure, shortened: as §1
# [4] = target: Neu5Ac(a2-3)Gal(b1-4)GlcNAc(b1-2)Man(a1-3)[Neu5Ac(a2-3)Gal(b1-4)GlcNAc(b1-2)Man(a1-6)]Man(b1-4)GlcNAc(b1-4)GlcNAc
# Procedure, shortened: as §1
# [5] = target: Neu5Ac(a2-3)Gal(b1-4)GlcNAc(b1-2)Man(a1-3)[Neu5Ac(a2-3)Gal(b1-4)GlcNAc(b1-2)Man(a1-6)]Man(b1-4)GlcNAc(b1-4)[Fuc(a1-6)]GlcNAc
# Procedure, shortened: as §1
# [6] = target: Neu5Ac(a2-3)Gal(b1-4)GlcNAc(b1-2)Man(a1-3)[Neu5Ac(a2-6)Gal(b1-4)GlcNAc(b1-2)Man(a1-6)]Man(b1-4)GlcNAc(b1-4)GlcNAc
# Procedure, shortened: as §1
# [7] = target: Neu5Ac(a2-3)Gal(b1-4)GlcNAc(b1-2)[Neu5Ac(a2-3)Gal(b1-4)GlcNAc(b1-4)]Man(a1-3)[GlcNAc(b1-4)][Neu5Ac(a2-3)Gal(b1-4)GlcNAc(b1-2)[Neu5Ac(a2-3)Gal(b1-4)GlcNAc(b1-6)]Man(a1-6)]Man(b1-4)GlcNAc(b1-4)GlcNAc
# Procedure, shortened: as §1
# [8] = target: Neu5Ac(a2-3)Gal(b1-4)GlcNAc(b1-2)[Neu5Ac(a2-3)Gal(b1-4)GlcNAc(b1-4)]Man(a1-3)[GlcNAc(b1-4)][Neu5Ac(a2-3)Gal(b1-4)GlcNAc(b1-4)Man(a1-6)]Man(b1-4)GlcNAc(b1-4)GlcNAc
# Procedure, shortened: as §1
# [9] = target: Neu5Ac(a2-3)Gal(b1-4)GlcNAc(b1-2)[Neu5Ac(a2-3)Gal(b1-4)GlcNAc(b1-6)]Man(a1-6)[Neu5Ac(a2-3)Gal(b1-4)GlcNAc(b1-2)Man(a1-3)]Man(b1-4)GlcNAc(b1-4)GlcNAc
# Procedure, shortened: as §1
# [10] = target: Neu5Ac(a2-3)Gal(b1-4)GlcNAc(b1-2)[Neu5Ac(a2-3)Gal(b1-4)GlcNAc(b1-6)]Man(a1-6)[Neu5Ac(a2-3)Gal(b1-4)GlcNAc(b1-2)Man(a1-3)][GlcNAc(b1-4)]Man(b1-4)GlcNAc(b1-4)GlcNAc
# Procedure, shortened: as §1
# [11] = target: Neu5Ac(a2-3)Gal(b1-4)GlcNAc(b1-3)Gal
# Procedure, shortened: as §1
# [12] = target: Neu5Ac(a2-3)Gal(b1-4)GlcNAc(b1-3)Gal(b1-3)GlcNAc
# Procedure, shortened: as §1
# [13] = target: Neu5Ac(a2-3)Gal(b1-4)GlcNAc(b1-3)Gal(b1-4)GlcNAc
# Procedure, shortened: as §1
# [14] = target: Neu5Ac(a2-3)Gal(b1-4)GlcNAc(b1-3)Gal(b1-4)GlcNAc(b1-2)Man(a1-3)[Neu5Ac(a2-3)Gal(b1-4)GlcNAc(b1-3)Gal(b1-4)GlcNAc(b1-2)Man(a1-6)]Man(b1-4)GlcNAc(b1-4)GlcNAc
# Procedure, shortened: as §1
# [15] = target: Neu5Ac(a2-3)Gal(b1-4)GlcNAc(b1-3)Gal(b1-4)GlcNAc(b1-3)Gal(b1-4)GlcNAc
# Procedure, shortened: as §1
# [16] = target: Neu5Ac(a2-3)Gal(b1-4)GlcNAc(b1-3)Gal(b1-4)GlcNAc(b1-3)Gal(b1-4)GlcNAc(b1-2)Man(a1-3)[Neu5Ac(a2-3)Gal(b1-4)GlcNAc(b1-3)Gal(b1-4)GlcNAc(b1-3)Gal(b1-4)GlcNAc(b1-2)Man(a1-6)]GalNAc
# Procedure, shortened: as §1
# [17] = target: Neu5Ac(a2-3)Gal(b1-4)GlcNAc(b1-3)Gal(b1-4)GlcNAc(b1-3)GalNAc
# Procedure, shortened: as §1
# [18] = target: Neu5Ac(a2-3)Gal(b1-4)GlcNAc(b1-3)Gal(b1-4)GlcNAc(b1-3)[Neu5Ac(a2-3)Gal(b1-4)GlcNAc(b1-3)Gal(b1-4)GlcNAc(b1-6)]GalNAc
# Procedure, shortened: as §1
# [19] = target: Neu5Ac(a2-3)Gal(b1-4)GlcNAc(b1-3)Gal(b1-4)GlcNAc(b1-6)[Gal(b1-3)]GalNAc
# Procedure, shortened: as §1
# [20] = target: Neu5Ac(a2-3)Gal(b1-4)GlcNAc(b1-3)Gal(b1-4)[Fuc(a1-3)]GlcNAc
# Procedure, shortened: as §1
# [21] = target: Neu5Ac(a2-3)Gal(b1-4)GlcNAc(b1-3)GalNAc
# Procedure, shortened: as §1
# [22] = target: Neu5Ac(a2-3)Gal(b1-4)GlcNAc(b1-3)[Neu5Ac(a2-3)Gal(b1-4)GlcNAc(b1-6)]GalNAc
# Procedure, shortened: as §1
# [23] = target: Neu5Ac(a2-3)Gal(b1-4)GlcNAc(b1-6)GalNAc
# Procedure, shortened: as §1
# [24] = target: Neu5Ac(a2-3)Gal(b1-4)GlcNAc(b1-6)[Gal(b1-3)]GalNAc
# Procedure, shortened: as §1
# [25] = target: Neu5Ac(a2-3)Gal(b1-4)GlcNAc(b1-6)[Neu5Ac(a2-3)Gal(b1-3)]GalNAc
# Procedure, shortened: as §1
# [26] = target: Neu5Ac(a2-3)Gal(b1-4)GlcNAc6S
# Procedure, shortened: as §1
# [27] = target: Neu5Ac(a2-3)Gal(b1-4)[Fuc(a1-3)]GlcNAc
# Procedure, shortened: as §1
# [28] = target: Neu5Ac(a2-3)Gal(b1-4)[Fuc(a1-3)]GlcNAc(b1-2)Man
# Procedure, shortened: as §1
# [29] = target: Neu5Ac(a2-3)Gal(b1-4)[Fuc(a1-3)]GlcNAc(b1-3)Gal
# Procedure, shortened: as §1
# [30] = target: Neu5Ac(a2-3)Gal(b1-4)[Fuc(a1-3)]GlcNAc(b1-3)Gal(b1-4)GlcNAc
# Procedure, shortened: as §1
# [31] = target: Neu5Ac(a2-3)Gal(b1-4)[Fuc(a1-3)]GlcNAc(b1-3)Gal(b1-4)[Fuc(a1-3)]GlcNAc(b1-3)Gal(b1-4)[Fuc(a1-3)]GlcNAc
# Procedure, shortened: as §1
# [32] = target: Neu5Ac(a2-3)Gal(b1-4)[Fuc(a1-3)]GlcNAc(b1-3)GalNAc
# Procedure, shortened: as §1
# [33] = target: Neu5Ac(a2-3)Gal(b1-4)[Fuc(a1-3)]GlcNAc(b1-6)[Gal(b1-3)]GalNAc
# Procedure, shortened: as §1
# [34] = target: Neu5Ac(a2-3)Gal(b1-4)[Fuc(a1-3)]GlcNAc(b1-6)[Neu5Ac(a2-3)Gal(b1-3)]GalNAc
# Procedure, shortened: as §1
# [35] = target: Neu5Ac(a2-3)Gal(b1-4)[Fuc(a1-3)]GlcNAc6S
# Procedure, shortened: as §1
# [36] = target: Neu5Ac(a2-3)Gal6S(b1-4)GlcNAc
# Procedure, shortened: as §1
# [37] = target: Neu5Ac(a2-3)Gal6S(b1-4)[Fuc(a1-3)]GlcNAc
# Procedure, shortened: as §1
binder,measurement,setting,value
PX14343C-bfa-541-26-541 (Bacteroides fragilis) (protein) KAPLDEIADDSFWSDETLVKYYVNDLYSEISVDGLQLQENRSDNSVSAQRDKYRASWFKFNYDMVSASDPQDDDVWEDYYVKVRKCNRFFERIGTSTIEESEKSRLTGEVHFLRAMFYFEMVKRYGGVILLDKVLTMEDNWEIPRSSEKECYDFILEDLKKATEMLPASYGSREKGRATKGAAYALKSRVELYDKRYEDVIKSCAEVYKLGYELVDGTTPEKYRSIWWTTNKDNKEIIFDVQYKSPDVYNNMMVCNMVTYINDKYGDRGWGGLGPTQELIDAFEMADGTPATQYSQAPADQVFDINTCGIYEGREPRFYANIVFHGSQIFFNADKGAVTVDRYLMDTPDKGDGSLTGYNVWKWIDYDNYNYPYAGAGSPDFSTNWIILRYAEIYLNDAEARLETGDVEGARKAVNMIRQRVGLPDLTESDPEKLRELIRKERRIEFAFEEQRFYDVRRWKIGPETQTTLHGVRFVSPTEFKVTKTDIRTWNDRLYLTPVPHDEIVRSSVLKQNLGY,glycan array binding signal (z-score),Neu5Ac(a2-3)Gal(b1-4)Glc,-0.175
same,glycan array binding signal (z-score),[1],-0.554
same,glycan array binding signal (z-score),[2],0.589
same,glycan array binding signal (z-score),[3],0.104
same,glycan array binding signal (z-score),[4],-0.388
same,glycan array binding signal (z-score),[5],-0.956
same,glycan array binding signal (z-score),[6],-0.28
same,glycan array binding signal (z-score),[7],0.102
same,glycan array binding signal (z-score),[8],-0.071
same,glycan array binding signal (z-score),[9],0.43
same,glycan array binding signal (z-score),[10],-0.471
same,glycan array binding signal (z-score),[11],-1.26
same,glycan array binding signal (z-score),[12],-0.417
same,glycan array binding signal (z-score),[13],-1.06
same,glycan array binding signal (z-score),[14],0.39
same,glycan array binding signal (z-score),[15],-0.847
same,glycan array binding signal (z-score),[16],5.05
same,glycan array binding signal (z-score),[17],-0.539
same,glycan array binding signal (z-score),[18],-1.06
same,glycan array binding signal (z-score),[19],-0.717
same,glycan array binding signal (z-score),[20],-0.402
same,glycan array binding signal (z-score),[21],0.316
same,glycan array binding signal (z-score),[22],-0.461
same,glycan array binding signal (z-score),[23],0.25
same,glycan array binding signal (z-score),[24],-0.756
same,glycan array binding signal (z-score),[25],-0.291
same,glycan array binding signal (z-score),[26],-0.358
same,glycan array binding signal (z-score),[27],-0.688
same,glycan array binding signal (z-score),[28],-0.669
same,glycan array binding signal (z-score),[29],-0.275
same,glycan array binding signal (z-score),[30],-0.19
same,glycan array binding signal (z-score),[31],0.044
same,glycan array binding signal (z-score),[32],0.474
same,glycan array binding signal (z-score),[33],-0.182
same,glycan array binding signal (z-score),[34],-0.091
same,glycan array binding signal (z-score),[35],-0.7
same,glycan array binding signal (z-score),[36],-0.876
same,glycan array binding signal (z-score),[37],-1.03

# A run of entries from the list above:
binder,measurement,setting,value
PX14343C-bfa-541-26-541 (Bacteroides fragilis) (protein) KAPLDEIADDSFWSDETLVKYYVNDLYSEISVDGLQLQENRSDNSVSAQRDKYRASWFKFNYDMVSASDPQDDDVWEDYYVKVRKCNRFFERIGTSTIEESEKSRLTGEVHFLRAMFYFEMVKRYGGVILLDKVLTMEDNWEIPRSSEKECYDFILEDLKKATEMLPASYGSREKGRATKGAAYALKSRVELYDKRYEDVIKSCAEVYKLGYELVDGTTPEKYRSIWWTTNKDNKEIIFDVQYKSPDVYNNMMVCNMVTYINDKYGDRGWGGLGPTQELIDAFEMADGTPATQYSQAPADQVFDINTCGIYEGREPRFYANIVFHGSQIFFNADKGAVTVDRYLMDTPDKGDGSLTGYNVWKWIDYDNYNYPYAGAGSPDFSTNWIILRYAEIYLNDAEARLETGDVEGARKAVNMIRQRVGLPDLTESDPEKLRELIRKERRIEFAFEEQRFYDVRRWKIGPETQTTLHGVRFVSPTEFKVTKTDIRTWNDRLYLTPVPHDEIVRSSVLKQNLGY,glycan array binding signal (z-score),[21],0.316
same,glycan array binding signal (z-score),[22],-0.461
